A short description of this assay: qHTS Assay for Modulators of Lamin A Splicing. Conditions: HeLa LMNA splicing GFP/RFP minigene ratio, 48 h. In outline:
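Read-out is the ratio of GFP to DsRed2 object intensity, acquired by 488 nm laser-scanning cytometry on HeLa lamin A-EGFP minigene reporter cells. Compound incubation 48 hrs at 37 °C in Opti-MEM with 2% FBS; DMSO 0.5% final.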

The mark [1] stands for this setting: measured here: RFP viability control channel.
Setting [2] is: measured here: GFP splicing reporter channel.

“And” between values parts separate entries of the source, which are not always exact repeats. Equal entries are not always repeated. The list shows a part of the results. The main result of the screen is listed elsewhere. These columns were measured beside it and carry no call. Compounds called inactive in the main read-out are mostly missing here. Potencies come from curve fits of mixed quality, noted in brackets.

Our source for the AC50 values is PubChem BioAssay AID1487 (National Center for Advancing Translational Sciences (NCATS), 2009).

Turning to `CCOc1ccc(C(=O)NCCn2cc(SCC(=O)Nc3cc(C)on3)c3ccccc32)cc1`, the concentration at half-maximal activity (AC50) under setting [1] is 5.62 µM [falling, single point].

In the case of `Cn1cc(CC(=O)NCCCN2CCOCC2)c2ccccc21`, the concentration at half-maximal activity (AC50) under setting [2] was 0.631 µM [rising, partial curve, poor fit] and the AC50 under setting [1] was 1.26 µM [rising, single point].

Consider `Cc1ccc(CNC(=O)CCc2ccc(S(=O)(=O)NC3CCCCC3)cc2)cc1`, for which the AC50 under setting [1] is 3.55 µM [rising, single point]. Regarding `O/N=C1/CCc2cccc3cccc1c23`, the AC50 under setting [2] is 28.2 µM [rising, single point] and the AC50 under setting [1] is 35.5 µM [rising, single point]. `Cn1nc(C(=O)OCC(=O)c2ccc[nH]2)c2ccccc2c1=O`: the AC50 under setting [1] was 0.0631 µM [falling, full curve, poor fit].

In the case of `COc1ccc(NCC(=O)N/N=C/C=C/c2ccccc2[N+](=O)[O-])cc1`, the AC50 under setting [1] was 3.16 µM [rising, single point]. For `CCOC(=O)c1c(C)[nH]c(C)c1S(=O)(=O)N(C)CC(=O)N1CCN(c2cccc(Cl)c2)CC1`, the AC50 under setting [2] was 22.4 µM [falling, partial curve]. Take `COc1ccc(OC)c(NC(=O)c2cccc(C)c2[N+](=O)[O-])c1`: the AC50 is 0.0251 µM [falling, full curve, poor fit] under setting [2] and 0.0224 µM [falling, full curve, poor fit] under setting [1].

In the case of `CCOC(=O)c1c(C)[nH]c(C(=O)NCc2ccco2)c1C`, under setting [2], the AC50 is 0.141 µM [rising, full curve, poor fit].

For `CCNCCNC(=O)c1c(O)c2cccc3c2n(c1=O)CCC3`, the AC50 under setting [2] is 31.6 µM [rising, single point]. In the case of `CCCCOC(=O)C1=C(C)Nc2ncnn2C1c1ccc(OC)c(OC)c1` (stereo unspecified), the AC50 is 2.82 µM [falling, single point] under setting [2] and 6.31 µM [falling, partial curve, poor fit] under setting [1].

With `CCC(=O)N1c2ccccc2C(N(C(C)=O)c2ccccc2)CC1C` (stereo unspecified), under setting [1], the AC50 is 20 µM [rising, single point]. Consider `CCOc1cc(CNCc2ccncc2)cc(Br)c1OCc1ccc(F)cc1`, for which the AC50 under setting [2] is 11.2 µM [rising, single point] and the AC50 under setting [1] was 15.8 µM [rising, single point].

For `O=C(c1ccc(S(=O)(=O)N2CCCC2)cc1)N1CCCc2ccccc21`, under setting [1], the AC50 is 22.4 µM [rising, partial curve, poor fit]. As to `CCCCc1nn2c(=O)cc(COC(=O)c3cccs3)nc2s1`, the AC50 is 0.01 µM [falling, full curve, poor fit] under setting [2] and 0.00891 µM [falling, full curve, poor fit] under setting [1].

As to `CCN(CC)S(=O)(=O)c1ccc(C(=O)Nc2nnc(COC)o2)cc1`, the AC50 under setting [2] was 11.2 µM [falling, partial curve]. With `CCOC(=O)c1cc(C)n(Cc2ccc(OCC)c(OC)c2)c1C`, the AC50 under setting [1] was 35.5 µM [rising, single point]. Take `O=c1c(-c2ccccc2)nc2cnc(Oc3cccc(Cl)c3)nc2n1C[C@H]1CCCO1`: the AC50 under setting [2] is 0.224 µM [falling, partial curve].

With `Nc1cc(=O)[nH]c(SCC(=O)NNC(=O)Cc2ccccc2)n1`, the AC50 by setting is: under setting [2], 0.00316 µM [falling, full curve, poor fit]; under setting [1], 0.00316 µM [falling, full curve, poor fit]. For `Cn1cc([N+](=O)[O-])c(C(=O)Nc2ccc(Br)cn2)n1`, the concentration at half-maximal activity (AC50) was 12.6 µM [falling, partial curve] under setting [2] and 25.1 µM [falling, single point] under setting [1]. Take `Cc1ccc(NC(=O)CSC2=C(C#N)C(c3ccco3)C3=C(CC(C)(C)CC3=O)N2)cc1` (stereo unspecified): under setting [1], the AC50 is 17.8 µM [rising, single point]. With `Cc1ccc(C(=O)c2c[nH]c3c(F)cc(F)cc3c2=O)cc1`, the AC50 under setting [1] was 3.55 µM [rising, full curve, poor fit]. Consider `CC1=C(C(=O)N(C)Cc2ccccc2)C2(CCC(C)CC2)OC1=O` (stereo unspecified), for which the AC50 under setting [1] is 25.1 µM [rising, single point].

As to `CCOc1cccc(C(=O)Nc2cccc(NC(=O)c3ccco3)c2)c1`, the AC50 reads like this: under setting [2], 14.1 µM [falling, single point]; under setting [1], 22.4 µM [falling, single point]. Consider `CC(C)n1c(NCCc2ccccc2)nc2c1c(=O)n(C)c(=O)n2C`, for which the AC50 by setting is: under setting [2], 7.94 µM [rising, partial curve]; under setting [1], 12.6 µM [rising, partial curve]. With `COc1cccc(Nc2ncc3ncc(=O)n(Cc4cccs4)c3n2)c1`, the half-maximal activity concentration (AC50) is 8.91 µM [falling, partial curve] under setting [2] and 10 µM [falling, partial curve] under setting [1]. Take `C/C(=N\NC(=O)C(N)=O)c1ccc(OC(F)F)cc1`: under setting [2], the AC50 is 0.158 µM [falling, full curve, poor fit].

On to `CC(C)C[C@H](NC(=O)Nc1ccc(S(N)(=O)=O)cc1)C(=O)O`, for which the concentration at half-maximal activity (AC50) reads like this: under setting [2], 0.02 µM [rising, full curve, poor fit]; under setting [1], 0.00501 µM [rising, full curve, poor fit]. For the molecule `O=C(COC(=O)C12CC3CC(CC(Br)(C3)C1)C2)N1CCOCC1`, the AC50 under setting [1] is 0.0631 µM [falling, full curve, poor fit]. For the molecule `N#Cc1ccccc1NC(=O)C(=O)NCC(c1cccnc1)N1CCc2ccccc21` (stereo unspecified), under setting [2], the AC50 is 1.41 µM [rising, full curve]. In the case of `CCOC(=O)N1CCN(S(=O)(=O)c2ccc(C(=O)Nc3nnc(CSC)o3)cc2)CC1`, the AC50 was 35.5 µM [rising, single point] under setting [2] and 35.5 µM [rising, single point] under setting [1]. In the case of `COc1ccc(NC(=O)c2ccc(-c3nn(C)c(=O)c4ccccc34)cc2)cc1`, the AC50 is, setting by setting: under setting [2], 3.98 µM [falling, full curve, poor fit]; under setting [1], 0.0251 µM [falling, full curve, poor fit]. For the molecule `COc1ccccc1-c1cc(C(=O)N/N=C/c2ccc(C)s2)c2ccccc2n1`, the AC50 under setting [1] was 11.2 µM [rising, partial curve]. As to `CC(C)NNC(=O)c1ccncc1`, the AC50 runs as follows: under setting [2], 7.08 nM [falling, full curve, poor fit] and 3.98 µM [falling, partial curve, poor fit]; under setting [1], 0.00501 µM [falling, full curve, poor fit]. In the case of `CC(C)(C)n1nnnc1C(c1ccc(F)cc1)N(Cc1ccc(F)cc1)Cc1ccco1` (stereo unspecified), the half-maximal activity concentration (AC50) under setting [1] is 22.4 µM [rising, single point].

Regarding `CCOC(=O)N1CCC(N2CCCC(C(=O)c3ccc4cc(OC)ccc4c3)C2)CC1` (stereo unspecified), the AC50 under setting [2] was 7.08 µM [falling, partial curve, poor fit]. On to `CC(C)CN1C=C2C(=O)C(C)(OC(=O)CCc3ccccc3)C(=O)C=C2C=C1c1ccc(C#N)cc1` (stereo unspecified), for which the AC50 under setting [2] was 0.000794 µM [rising, full curve, poor fit].

Take `COc1ccc([N+](=O)[O-])cc1NC(=O)C(C)OC(=O)c1ccccc1C(=O)c1ccc(Cl)cc1` (stereo unspecified): the AC50 under setting [1] was 11.2 µM [rising, partial curve, poor fit]. Turning to `CCn1c(-c2ccc([N+](=O)[O-])cc2)n[nH]c1=S`, the AC50 under setting [2] was 12.6 µM [rising, single point].

In the case of `COc1cc(/C=N/NC(N)=S)ccc1OCc1ccc(C)cc1`, the AC50 under setting [2] was 2.24 µM [rising, full curve, poor fit] and the AC50 under setting [1] is 12.6 µM [rising, partial curve, poor fit].

In the case of `COc1cccc(N(CC(=O)N/N=C(\C)c2cccs2)S(C)(=O)=O)c1`, the AC50 is 15.8 µM [rising, single point] under setting [2] and 35.5 µM [rising, single point] under setting [1]. With `CCn1c(=O)c(C(=O)NCCc2ccccc2)c(O)c2ccccc21`, the AC50 under setting [1] was 14.1 µM [rising, single point].

As for `CCOc1ccc(Nc2oc(-c3ccc(COc4ccc(C)cc4)o3)nc2C#N)cc1`, the AC50 is 2.24 µM [falling, partial curve] under setting [2] and 31.6 µM [falling, partial curve, poor fit] under setting [1]. Take `CCOC(=O)/C(=N\Nc1ccccc1[N+](=O)[O-])c1csc(N)n1`: the AC50 by setting is: under setting [2], 0.891 µM [falling, full curve]; under setting [1], 0.0282 µM [falling, full curve]. As to `CCCCC(=O)Nc1ccc(C(=O)OCc2cc(=O)n3ccsc3n2)cc1`, under setting [2], the AC50 is 35.5 µM [falling, partial curve, poor fit]. For the molecule `CCOC(=O)c1sc2cccc(F)c2c1S(=O)(=O)Nc1ccccc1F`, the AC50 is 25.1 µM [rising, single point] under setting [2] and 28.2 µM [rising, single point] under setting [1]. Take `Cc1ccc(NC(=O)Cn2c(=O)cc(-c3ccccc3)c3c(C)nn(C)c32)c(Cl)c1`: under setting [2], the AC50 is 0.282 µM [rising, full curve]. Turning to `CCOc1ccc(S(=O)(=O)NC2CCCCCC2)cc1`, the AC50 under setting [1] is 35.5 µM [falling, single point].

Consider `c1ccn2cc(CSC3=NCCS3)nc2c1`, for which the concentration at half-maximal activity (AC50) under setting [1] is 2.51 µM [rising, partial curve, poor fit]. For the molecule `C=CCNC(=O)c1onc(CSc2ccc(Cl)cc2)c1C(=O)O`, the AC50 under setting [2] was 12.6 µM [falling, single point]. Consider `COc1ccc(OC)c(S(=O)(=O)NCc2ccc3c(c2)CCN3C(=O)c2cccc(C)c2)c1`, for which the half-maximal activity concentration (AC50) is 17.8 µM [falling, single point] under setting [2] and 20 µM [falling, single point] under setting [1]. As to `O=C(NC(c1ccccc1)c1c(O)ccc2ccccc12)c1ccccc1Cl` (stereo unspecified), the AC50 is 35.5 µM [falling, single point] under setting [2] and 22.4 µM [falling, single point] under setting [1].

In the case of `CC(=O)N(CCC1(C(C)C)CCOC(C)(C)C1)Cc1ccco1` (stereo unspecified), the concentration at half-maximal activity (AC50) was 0.00355 µM [rising, full curve, poor fit] under setting [2] and 0.00891 µM [rising, full curve, poor fit] under setting [1].
